Data reported in PubChem BioAssay AID330 (DTP/NCI, 2004).
The list shows only some results of the screen, not a fair sample: it gathers tests that were run many times, whatever their T/C, doses with no T/C, and many T/C values between a quarter and a half above the control. Other doses and runs of a compound stand elsewhere. T/C: endpoint of the treated group in % of that of the vehicle group. Some doses have a count of surviving animals in place of a T/C: the source files T/C as zero there, which appears to mark a toxic dose or a test without result, not a measured value. Some survivor counts are full or nearly so, which does not show that the dose was tolerated: the source hardly ever lists a survival T/C far under the control, and the zero likely stands for such cases as well. Survivors were counted at the toxicity check, usually on the fifth day, unless a day is given; later deaths do not show. Schedule codes are those of the source, read here as Q, the interval in days (D) or hours (H), X, the number of doses. Some structures stand for samples that the source files as different forms (salt, stereo form or complex); doses refer to the form tested. Where survival is the endpoint, the PubChem record calls one and a half times the control and up active, and a quarter to a half above the control has no call in these data; cut-offs in other NCI protocols can differ. Some T/C values are followed by the survivors on the day toxicity was checked, most often the fifth; without a count, all were alive then. Some entries hold several experiments; the results are listed from low to high. Brackets with × stand for listed records that agree.

System: P388 leukemia ip, CD2F1 mice, survival T/C
Assay: NCI In Vivo Anticancer Drug Screen. Data for tumor model P388 Leukemia (intraperitoneal) in CD2F1 (CDF1) mice
Settings: T/C endpoint: median survival time, higher T/C = longer survival

CCOC(=O)Nc1cc2c(c(N)n1)N=C(c1ccccc1)CO2
T/C (dose: 50.0 mg/kg/injection, schedule: Q01DX005 (ip), vehicle: DMSO, evaluated on day 20): 105 % of control
T/C (dose: 50.0 mg/kg/injection, schedule: Q01DX005 (ip), vehicle: DMSO, evaluated on day 30): 100, 115, 119, 126 % of control
T/C (dose: 50.0 mg/kg/injection, schedule: Q01DX005 (ip), vehicle: Klucel (hydroxypropylcellulose) (HPC), evaluated on day 20): 115 % of control
T/C (dose: 50.0 mg/kg/injection, schedule: Q01DX005 (ip), vehicle: Klucel (hydroxypropylcellulose) (HPC), evaluated on day 30): 102, 107, 108 % of control (2×)
T/C (dose: 50.0 mg/kg/injection, schedule: Q01DX005 (ip), vehicle: alcohol, evaluated on day 20): 105 % of control
T/C (dose: 50.0 mg/kg/injection, schedule: Q01DX005 (ip), vehicle: alcohol, evaluated on day 30): 94, 104 (2×), 105 % of control
T/C (dose: 50.0 mg/kg/injection, schedule: Q01DX005 (ip), vehicle: other, evaluated on day 20): 108 % of control
T/C (dose: 50.0 mg/kg/injection, schedule: Q01DX005 (ip), vehicle: other, evaluated on day 30): 101, 105, 108, 110 % of control
T/C (dose: 50.0 mg/kg/injection, schedule: Q01DX005 (ip), vehicle: saline with Tween-80, evaluated on day 20): 112 % of control
T/C (dose: 50.0 mg/kg/injection, schedule: Q01DX005 (ip), vehicle: saline with Tween-80, evaluated on day 30): 104, 108, 109, 110, 112, 126 % of control
T/C (dose: 100.0 mg/kg/injection, schedule: Q01DX005 (ip), vehicle: DMSO, evaluated on day 20): 111 % of control
T/C (dose: 100.0 mg/kg/injection, schedule: Q01DX005 (ip), vehicle: DMSO, evaluated on day 30): 116 [5 of 6 alive], 122, 127, 147 % of control
T/C (dose: 100.0 mg/kg/injection, schedule: Q01DX005 (ip), vehicle: Klucel (hydroxypropylcellulose) (HPC), evaluated on day 20): 118 % of control
T/C (dose: 100.0 mg/kg/injection, schedule: Q01DX005 (ip), vehicle: Klucel (hydroxypropylcellulose) (HPC), evaluated on day 30): 111, 116 (2×), 123 % of control
T/C (dose: 100.0 mg/kg/injection, schedule: Q01DX005 (ip), vehicle: alcohol, evaluated on day 20): 115 % of control
T/C (dose: 100.0 mg/kg/injection, schedule: Q01DX005 (ip), vehicle: alcohol, evaluated on day 30): 93, 100, 102, 108 % of control
T/C (dose: 100.0 mg/kg/injection, schedule: Q01DX005 (ip), vehicle: other, evaluated on day 20): 109 % of control
T/C (dose: 100.0 mg/kg/injection, schedule: Q01DX005 (ip), vehicle: other, evaluated on day 30): 110, 111, 112, 113 % of control
T/C (dose: 100.0 mg/kg/injection, schedule: Q01DX005 (ip), vehicle: saline with Tween-80, evaluated on day 20): 116 % of control
T/C (dose: 100.0 mg/kg/injection, schedule: Q01DX005 (ip), vehicle: saline with Tween-80, evaluated on day 30): 108, 115 (2×), 119, 126, 140, 144 % of control
T/C (dose: 200.0 mg/kg/injection, schedule: Q01DX005 (ip), vehicle: DMSO, evaluated on day 20): 121 % of control
T/C (dose: 200.0 mg/kg/injection, schedule: Q01DX005 (ip), vehicle: DMSO, evaluated on day 30): 135, 140, 150, 156 % of control
T/C (dose: 200.0 mg/kg/injection, schedule: Q01DX005 (ip), vehicle: Klucel (hydroxypropylcellulose) (HPC), evaluated on day 20): 127 % of control
T/C (dose: 200.0 mg/kg/injection, schedule: Q01DX005 (ip), vehicle: Klucel (hydroxypropylcellulose) (HPC), evaluated on day 30): 105, 119, 120, 127 % of control
T/C (dose: 200.0 mg/kg/injection, schedule: Q01DX005 (ip), vehicle: alcohol, evaluated on day 20): 102 % of control
T/C (dose: 200.0 mg/kg/injection, schedule: Q01DX005 (ip), vehicle: alcohol, evaluated on day 30): 106, 112, 113, 121 % of control
T/C (dose: 200.0 mg/kg/injection, schedule: Q01DX005 (ip), vehicle: other, evaluated on day 20): 120 % of control
T/C (dose: 200.0 mg/kg/injection, schedule: Q01DX005 (ip), vehicle: other, evaluated on day 30): 117, 119, 124, 125 % of control
T/C (dose: 200.0 mg/kg/injection, schedule: Q01DX005 (ip), vehicle: saline with Tween-80, evaluated on day 20): 125 % of control
T/C (dose: 200.0 mg/kg/injection, schedule: Q01DX005 (ip), vehicle: saline with Tween-80, evaluated on day 30): 112, 114, 120, 123, 128, 180 % of control
T/C (dose: 400.0 mg/kg/injection, schedule: Q01DX005 (ip), vehicle: DMSO, evaluated on day 20): 131 % of control
T/C (dose: 400.0 mg/kg/injection, schedule: Q01DX005 (ip), vehicle: DMSO, evaluated on day 30): 148, 166 [4 of 6 alive], 173 % of control
survivor count (dose: 400.0 mg/kg/injection, schedule: Q01DX005 (ip), vehicle: DMSO): 0 of 6
T/C (dose: 400.0 mg/kg/injection, schedule: Q01DX005 (ip), vehicle: Klucel (hydroxypropylcellulose) (HPC), evaluated on day 20): 131 % of control
T/C (dose: 400.0 mg/kg/injection, schedule: Q01DX005 (ip), vehicle: Klucel (hydroxypropylcellulose) (HPC), evaluated on day 30): 116, 120, 135, 141 % of control
T/C (dose: 400.0 mg/kg/injection, schedule: Q01DX005 (ip), vehicle: alcohol, evaluated on day 20): 116 % of control
T/C (dose: 400.0 mg/kg/injection, schedule: Q01DX005 (ip), vehicle: alcohol, evaluated on day 30): 108, 112, 121, 125 % of control
T/C (dose: 400.0 mg/kg/injection, schedule: Q01DX005 (ip), vehicle: other, evaluated on day 20): 127 % of control
T/C (dose: 400.0 mg/kg/injection, schedule: Q01DX005 (ip), vehicle: other, evaluated on day 30): 122, 127, 128, 138 % of control
T/C (dose: 400.0 mg/kg/injection, schedule: Q01DX005 (ip), vehicle: saline with Tween-80, evaluated on day 20): 126 % of control
T/C (dose: 400.0 mg/kg/injection, schedule: Q01DX005 (ip), vehicle: saline with Tween-80, evaluated on day 30): 87, 116, 125, 130 [5 of 6 alive], 135, 137 % of control

Cc1[nH]ccc2c(C)c3nc4ccccc4c3cc12
T/C (dose: 20.0 mg/kg/injection, schedule: Q04DX002 (ip), vehicle: distilled water + Tween-80): 133 % of control
T/C (dose: 40.0 mg/kg/injection, schedule: Q04DX002 (ip), vehicle: distilled water + Tween-80): 136 % of control
T/C (dose: 50.0 mg/kg/injection, schedule: Q04DX002 (ip), vehicle: water): 140 % of control
T/C (dose: 80.0 mg/kg/injection, schedule: Q04DX002 (ip), vehicle: distilled water + Tween-80): 139 % of control
survivor count (dose: 100.0 mg/kg/injection, schedule: Q01DX009 (ip), vehicle: saline with Tween-80): 5 of 6

O=C(Nc1ccc(N=C=S)cc1)c1cc(Br)cc(Br)c1O
survivor count (dose: 200.0 mg/kg/injection, schedule: Q01DX001 (ip), vehicle: Klucel (hydroxypropylcellulose) (HPC)): 0 of 6

Cc1cc(N(C)C)c2ccc(N(C)C)cc2n1
survivor count (dose: 100.0 mg/kg/injection, schedule: Q01DX005 (ip), vehicle: saline with Tween-80): 0 of 6
survivor count (dose: 200.0 mg/kg/injection, schedule: Q01DX005 (ip), vehicle: saline with Tween-80): 0 of 6
